The other results are listed elsewhere or left out.
B1: il2ra_site1_2b5i_sap_11_mot_HHH_b1_08426_af2_000000046_0001_39_52_H_._HHH_b2_08125_0001_0000200013_0000001_0_0001_af2pred_dldesign_0_af2pred (protein)
chain: SSSSSEEEREKRKLIVTAIYKARKAGRLDLVEELEKLFREAEEKEDPELLEKAVELAEKLKSSSS
B2: il2ra_site2_2erj_sap_27_mot_7e1f6796e11acccb4f28c496eb549a56_0001_000000101_0001_18_33_H_._HHH_b2_05848_0001_0000100002_0000001_0_0001 (protein)
chain: SRLAERLSELFIEGNLEELIERLEEEAEEKGDPELRKVVELLREALEKRDLHLLYEAANLLLALE
B3: il2ra_site2_3nfp_sap_15_mot_HHH_b2_03534_af2_000000269_0001_23_39_H_._HHH_b2_03417_0001_0000300007_0000001_1_0001 (protein)
chain: SSSSDSEEYIRAALALAKRAAERNDPWAKKLLEMIRMAIEDNGDEEAEELLEEIERLLRELSSSS
B4: il2ra_site2_3nfp_normal_mot_HHH_b2_08245_000000023_0001_41_55_H_._HHH_b1_01900_0001_0000200014_0000001_0 (protein)
chain: SSSSSEDEERVRELLEEAERYYKEGNPEEVRRLLAEAVQIAYENRNSRLFMLVAEVLFKLASSSS
B5: il2ra_site1_3nfp_normal_mot_HHH_b1_06850_000000137_0001_20_36_H_._07b95291b2aa50a0032af9b2c932e4da_0001_0001_0000200008_0000001_0_af2pred_0001_af2pred_1_swapped (protein)
chain: SAAEVLVRRLLRDGVPPEEILRRLRESAEKSGLPPEEVLKIILEVARAVGDPELEELVEKELEET
B6: il2ra_site1_3nfp_sap_24_mot_HHH_b1_03720_af2_000000263_0001_1_17_H_._e4d3c9083c3fc392893eb496235fbbca_0001_0001_0000200017_0000001_0_0001 (protein)
chain: SSSSTEELQRLFHEAFELAKEGDKEEAQEVLEELIELAREEGDRNLLRSAERALEMLRRGSSSSS
B7: il2ra_site2_3nfp_sap_24_mot_0136b98644bc9a8eb58b95019b738ebb_0001_1_000000071_0001_1_13_H_._HHH_b1_06774_af2_0001_0000900021_0000001_0_0001 (protein)
chain: SSSSSSDLEEEVQELLERLKKVSEEERKKLLAKAVRLVWENNNPELYMRIAEALFELASSSSSSS
B8: il2ra_site2_2erj_sap_14_mot_HHH_b2_02734_000000067_0001_42_55_H_._1caa80fd4e4d8c86599c81cf5b939f25_0001_1_0001_0000200002_0000001_0_0001 (protein)
chain: SSSSDKEEIEELLEELEEALREGDHHTFAEIFSRVLELIQKLGDEELLKILWELLREHARNSSSS
B9: il2ra_site1_3nfp_normal_mot_HHH_b2_02053_000000240_0001_1_20_H_._HHH_b2_04625_af2_0001_0000400056_0000001_0_af2pred_0001_af2pred (protein)
chain: SSSSSDSVRRAAELSRRIQELLREGNPEEAEELIRELEELAKKHNDPAAKLLVKRLEKLLSSSSS
B10: il2ra_site1_3nfp_sap_16_mot_HHH_b1_00821_000000039_0001_1_20_H_._HHH_b1_08092_af2_0001_0000600017_0000001_1_0001 (protein)
chain: SANKYAVELALRSGDFEAALRLLERAAKSFGDPKFEEIVEEAKELLERGVPPEEVARILEELLER
B11: il2ra_site2_2erj_sap_21_mot_HHH_b1_04373_af2_000000118_0001_18_33_H_._HHH_b2_06097_af2_0001_0000400031_0000001_0_0001_af2pred_0001_af2pred (protein)
chain: SSSSDAHELFKLARLAEELLLRGDKEEAEEVIEKLRELAEELNNKAARQALRILEELLEELSSSS
B12: il2ra_site2_2erj_normal_mot_HHH_b1_03107_000000098_0001_39_52_H_._HHH_b2_01132_0001_0000100001_0000001_0 (protein)
chain: SSSSSDVREIWEEVARLLAEAAHIKDPEEVRKLLEEAERLAEEANSPYLERYVEFARRDASSSSS
B13: il2ra_site1_3nfp_normal_mot_HHH_b1_00678_af2_000000150_0001_43_56_H_._HHH_b1_08381_0001_0000700044_0000001_0 (protein)
chain: SSSSTEVERRVLELIKEALRLKREGDPEQAREILEEALEIARENNDRIAARLLEDALRLLNSSSS
B14: il2ra_site2_3nfp_sap_16_mot_HHH_b1_06174_af2_000000017_0001_40_57_H_._6048afb1487e1bae81da528158059565_0001_af2_0001_0000600031_0000001_0_0001 (protein)
chain: SSSSSEAEEYIKTALELAKRTPDPEIARRMVELALLAARSNQDEELEREAEELRQEIENSSSSSS
B15: il2ra_site1_2b5i_sap_15_mot_HHH_b2_04274_000000042_0001_1_19_H_._HHH_b1_02492_0001_0000200010_0000001_0_0001_af2pred_0001_af2pred_1 (protein)
chain: SSSSSDFHEILELYREASELFRRGDPEEARKVLEKALELAEELGDERIRRELERLLELLKSSSSS
B16: il2ra_site1_3nfp_sap_24_mot_HHH_b1_05128_000000175_0001_22_38_H_._HHH_b1_08248_0001_0000200014_0000001_0_0001 (protein)
chain: SLEEKLEEILKQYLPPVEVRALLRLVEQARRSANVPPEEAVRLLIELLKRLGNPELAEILEEALR
B17: il2ra_site2_2erj_normal_mot_ems_3hM_1508_000000265_0001_1_20_H_._HHH_b2_01938_af2_0001_0000400031_0000001_0 (protein)
chain: SSSSSDVEERVLELLQEALRVQDEEEFRELLEEAKRLAEELGDEELRLMIEVLEEYFERLSSSSS
B18: il2ra_site1_3nfp_normal_mot_c3f6a624e0b36238ad1b06fe81c08c0c_0001_1_af2_000000203_0001_51_65_H_._c99de99df9ecc9fdd090aa5ad7eabf9c_0001_af2_0001_0000200012_00000 … (protein)
chain: SAAEIAIRWAVERNNPKLVKKLLEQIERHLRRGNPAAKEAIELLEELLEELGNEELLEEVEKVRK
B19: il2ra_site1_2b5i_normal_mot_HHH_b2_04910_000000118_0001_1_19_H_._HHH_b2_07197_af2_0001_0000200006_0000001_0_af2pred_dldesign_0_af2pred (protein)
chain: SSSSSPGEEARRLFLRFDEAYKAGDEAAVARLAAELRRLAEEKKCGIARKNLAVAQRFLGSSSSS
B20: il2ra_site2_2erj_sap_26_mot_HHH_b1_03572_af2_000000146_0001_41_56_H_._HHH_b1_08564_0001_0000100011_0000001_0_0001 (protein)
chain: SSSSSDVEERVLELIARAAEIKDPEEVRRLLEEALELAEENNDELLERYVELSLREAEKSSSSSS
B21: il2ra_site1_1z92_normal_mot_01209686ea234b34325f918445e6eade_0001_af2_000000154_0001_18_33_H_._8f8e71037d2208c0bcbb37bb3b3df6f7_0001_0001_0000600019_0000001_0_a … (protein)
chain: SEEELEELIEELEKAPDPDERAAAYDLKHALEQGIPPEAVLRAVIRNLEAAGNPEVAKKLQEILK
B22: il2ra_site2_2erj_normal_mot_HHH_b2_04478_af2_000000122_0001_23_39_H_._HHH_b1_06980_0001_0000100002_0000001_0 (protein)
chain: SSSSDVEELLEEIEELLRRGDLEEAEKLLHEASELAFERNDFELFSAVAELTHLIARLEVSSSSS
B23: il2ra_site2_3nfp_sap_23_mot_HHH_b1_06431_000000233_0001_39_56_H_._HHH_b1_02296_af2_0001_0000200009_0000001_0_0001 (protein)
chain: SSSSDYEEEVRELLERVEELLENGNPEEAEKALARASHIAFRHNDSELFFEIAELAYRVFQSSSS
B24: il2ra_site1_2b5i_sap_12_mot_HHH_b1_06317_000000089_0001_24_40_H_._HHH_b1_04837_af2_0001_0000300014_0000001_0_0001_af2pred_0001_af2pred (protein)
chain: SSSDEIREIMKLLREAFRLLREGNPEEARKLAEEAEELVEEAKNPALKRIVELLKELIEQKSSSS
B25: il2ra_site1_1z92_sap_22_mot_HHH_b2_05734_000000004_0001_1_18_H_._8fa6976bf83f87873b50afdd12020151_0001_1_0001_0000300018_0000001_0_0001_af2pred_0001_af2pred_1_s … (protein)
chain: SSSSDEREKKSLELAVRIAVEIAGLSEEDEEKLEELLEELLERGVSFLEALRELDRVAAELSSSS
B26: il2ra_site2_2erj_sap_11_mot_HHH_b1_06697_000000025_0001_41_54_H_._HHH_b1_00902_0001_0000600018_0000001_0_0001 (protein)
chain: SSSSNEDLHELYKILVRLLRLVAEGDREELEELLKEAEKLAERLQSPNVEEIIELLKRKGSSSSS
B27: il2ra_site1_1z92_normal_mot_01209686ea234b34325f918445e6eade_0001_af2_000000144_0001_18_33_H_._5b5174569719974cf8d79a489bb4e86b_0001_af2_0001_0000400040_0000001 … (protein)
chain: GPEEVLEELKESGDPALELFVRLFEQMLRLGATPKAILHALKIAAERLGSPELERAIRLFEELER
B28: il2ra_site1_2b5i_normal_mot_HHH_b1_07278_af2_000000289_0001_23_39_H_._HHH_b1_01150_af2_0001_0000100005_0000001_0_af2pred_0001_af2pred_1 (protein)
chain: SSSSSLEEFAEKVVEKLVEEFNLSESLKRQLQRIAELAAKNGESEEQIEEFLRKFAEIASSSSSS
B29: il2ra_site2_3nfp_normal_mot_HHH_b2_07498_000000057_0001_1_14_H_._HHH_b2_00986_0002_0000400018_0000001_0 (protein)
chain: SSSSDIEERVKELLEEARELLEEGDRFEAARLVLEATRLALEGNDPELAREVLELYELIKGSSSS
B30: il2ra_site2_3nfp_sap_25_mot_HHH_b1_04781_af2_000000057_0001_1_18_H_._68a93843eea4aac11f7850c58dbd17f4_0001_0001_0000300015_0000001_0_0001 (protein)
chain: SSSSDLEEEAEELLFRAYRLMLEGNPEEARKLLEKAEELAREGGDEDLLRLIEWALEALRQSSSS
B31: il2ra_site2_2erj_normal_mot_af86707857d369f3e1d85dcabc5f9321_0001_000000201_0001_14_29_H_._HHH_b2_05893_0001_0000400040_0000001_0 (protein)
chain: SSSSDEEVRRLIEQAEELLEEGNPEEAVSVLIEAAHLAAREGNEELLKRISELFEELYRKSSSSS
B32: il2ra_site1_1z92_normal_mot_HHH_b1_06709_000000271_0001_41_56_H_._HHH_b1_03222_0001_0000100009_0000001_0 (protein)
chain: SSSSSANEEAIELALRAAERALEKGNPEKAREWLEFALRQAEILGNPELLEEIRELLEKLSSSSS
B33: il2ra_site1_3nfp_sap_15_mot_HHH_b2_00809_af2_000000121_0001_23_40_H_._HHH_b2_00375_af2_0001_0000100006_0000001_0_0001 (protein)
chain: SEEEEIEERLRELGVPPAQVRAVLRFFEQALKQGYPPEEVLEIIVRYLEKMGDPELARAVREVLK
B34: il2ra_site2_2erj_normal_mot_HHH_b2_06983_000000031_0001_43_57_H_._HHH_b1_03120_af2_0001_0000500021_0000001_0 (protein)
chain: SSSSDEEERELEELLVKLVELAREGDEEQAKKLLEELEELAEELNDLLTLMFVELLKREFSSSSS
B35: il2ra_site2_3nfp_normal_mot_HHH_b1_05627_af2_000000038_0001_43_56_H_._HHH_b2_03758_0001_0000400029_0000001_0 (protein)
chain: SSSSSKQEEYLRIALEIAERAAEQGDPEAARESLEAALLLAEALRNEELLEEIRQLLEEIGSSSS
B36: il2ra_site2_2erj_sap_14_mot_HHH_b1_04257_af2_000000188_0001_43_57_H_._HHH_b2_02437_0002_0000400020_0000001_0_0001_af2pred_0001_1_af2pred_swapped (protein)
chain: SSSSDVEERVRELLEEARELLEEGDPHRAASVLIEAAYLALEAGDDELFEEVSKVSDRIIRSSSS
B37: il2ra_site2_2erj_sap_25_mot_HHH_b1_05944_000000221_0001_38_56_H_._HHH_b1_01612_af2_0001_0000700025_0000001_0_0001 (protein)
chain: SSSNELAMFAFKLVSELVQELGLDSEQAAELFEFAKRLVEEGVSEEEIKELVEELAERLAGSSSS

target: il2ra, P01589; test: yeast display titration

Apparent Kd, inactive:
B1 no binding seen
B2 no binding seen
B3 no binding seen
B4 no binding seen
B5 no binding seen
B6 no binding seen
B7 no binding seen
B8 no binding seen
B9 no binding seen
B10 no binding seen
B11 no binding seen
B12 no binding seen
B13 no binding seen
B14 no binding seen
B15 no binding seen
B16 no binding seen
B17 no binding seen
B18 no binding seen
B19 no binding seen
B20 no binding seen
B21 no binding seen
B22 no binding seen
B23 no binding seen
B24 no binding seen
B25 no binding seen
B26 no binding seen
B27 no binding seen
B28 no binding seen
B29 no binding seen
B30 no binding seen
B31 no binding seen
B32 no binding seen
B33 no binding seen
B34 no binding seen
B35 no binding seen
B36 no binding seen
B37 no binding seen

A stretch from the list above, as a working copy:
Apparent Kd, inactive:
B7 no binding seen
B8 no binding seen

Reference: article PMC10163288
